This is an account of results in patent US6465254, “Mutant loxP site and applications thereof” (Sumitomo Pharmaceuticals Company, Limited).

Protein sequences can lack the tags named with them.

One data set has as its target T1, Cre recombinase (UniProt P06956).
T1 sequence (looked up, limits assumed): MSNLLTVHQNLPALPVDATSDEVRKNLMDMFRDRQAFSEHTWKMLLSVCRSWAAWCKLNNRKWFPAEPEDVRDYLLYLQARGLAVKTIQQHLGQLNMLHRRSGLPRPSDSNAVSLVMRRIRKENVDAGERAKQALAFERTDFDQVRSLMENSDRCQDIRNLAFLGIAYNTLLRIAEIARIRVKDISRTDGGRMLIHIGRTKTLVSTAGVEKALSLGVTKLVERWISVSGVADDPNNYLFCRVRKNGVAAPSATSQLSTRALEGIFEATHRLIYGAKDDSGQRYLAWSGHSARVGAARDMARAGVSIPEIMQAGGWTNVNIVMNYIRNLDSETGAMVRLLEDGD
Nature of the data set: activity assay. To be noted: self x self; intermediate 0; protein in a lysate after overexpression; variant of wild-type loxP; counted as no effect.
“ATAACTTCGTATAATATATCCTATACGAAGTTAT (double strand) [mutant loxP #3172]”: the activity on this sequence (grade 0-9 final product) came to 0.

Still in this data set, the particulars now being: with wt loxP; intermediate 0; protein in a lysate after overexpression; variant of wild-type loxP; counted as no effect.
In the case of “ATAACTTCGTATAAAGTATCCTATACGAAGTTAT (double strand) [mutant loxP #2272]”, the activity on this sequence (grade 0-9 final product) came out at 0. Take “ATAACTTCGTATAACGTATACTATACGAAGTTAT (double strand) [mutant loxP #2171]”: the activity on this sequence (grade 0-9 final product) was determined as 0. As for “ATAACTTCGTATAATATATACTATACGAAGTTAT (double strand) [mutant loxP #3171]”, the activity on this sequence (grade 0-9 final product) is 0. For “ATAACTTCGTATAATGCATACTATACGAAGTTAT (double strand) [mutant loxP #4171]”, the activity on this sequence (grade 0-9 final product) was 0. Consider “ATAACTTCGTATAATGTGTACTATACGAAGTTAT (double strand) [mutant loxP #5171]”, for which the activity on this sequence (grade 0-9 final product) amounted to 0.

“ATAACTTCGTATAATGTTTCCTATACGAAGTTAT (double strand) [mutant loxP #5272]”: the activity on this sequence (grade 0-9 final product) came to 0.
